Test results as given in the supplement of paper PMC12067093, “Discovery and optimisation of a covalent ligand for TRIM25 and its application to targeted protein ubiquitination” (Chemical Science, 2025).
The list shows a part of the results.

By UniProt entry, the sequences of proteins in these tests, tags left out. Where a name states a change or a piece, a line headed by the entry shows the natural chain unless it says otherwise.
UniProt Q9H7E2: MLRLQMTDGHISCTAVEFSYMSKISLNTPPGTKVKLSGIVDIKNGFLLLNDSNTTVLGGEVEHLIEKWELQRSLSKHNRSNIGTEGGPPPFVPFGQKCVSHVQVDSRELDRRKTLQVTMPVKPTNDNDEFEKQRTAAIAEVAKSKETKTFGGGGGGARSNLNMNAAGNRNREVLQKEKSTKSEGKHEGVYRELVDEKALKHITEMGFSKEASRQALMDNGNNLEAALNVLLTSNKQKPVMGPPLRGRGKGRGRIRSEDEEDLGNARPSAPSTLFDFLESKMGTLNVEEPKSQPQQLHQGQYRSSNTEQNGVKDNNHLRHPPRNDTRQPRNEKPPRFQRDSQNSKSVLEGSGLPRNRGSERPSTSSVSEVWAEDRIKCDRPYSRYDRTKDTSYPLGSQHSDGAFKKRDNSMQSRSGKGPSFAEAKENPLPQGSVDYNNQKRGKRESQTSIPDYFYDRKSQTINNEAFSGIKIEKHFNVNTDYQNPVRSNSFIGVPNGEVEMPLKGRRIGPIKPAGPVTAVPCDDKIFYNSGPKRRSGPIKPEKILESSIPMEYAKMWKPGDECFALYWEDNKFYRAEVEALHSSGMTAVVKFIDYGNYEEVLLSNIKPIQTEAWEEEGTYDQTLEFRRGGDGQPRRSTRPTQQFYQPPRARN
UniProt P04183: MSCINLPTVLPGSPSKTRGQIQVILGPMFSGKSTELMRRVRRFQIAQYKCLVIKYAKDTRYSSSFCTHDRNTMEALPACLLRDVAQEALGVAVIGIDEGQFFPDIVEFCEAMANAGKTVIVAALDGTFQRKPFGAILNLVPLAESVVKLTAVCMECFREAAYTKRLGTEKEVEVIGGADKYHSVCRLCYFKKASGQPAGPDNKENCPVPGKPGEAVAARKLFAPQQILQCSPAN
UniProt Q9BSF4: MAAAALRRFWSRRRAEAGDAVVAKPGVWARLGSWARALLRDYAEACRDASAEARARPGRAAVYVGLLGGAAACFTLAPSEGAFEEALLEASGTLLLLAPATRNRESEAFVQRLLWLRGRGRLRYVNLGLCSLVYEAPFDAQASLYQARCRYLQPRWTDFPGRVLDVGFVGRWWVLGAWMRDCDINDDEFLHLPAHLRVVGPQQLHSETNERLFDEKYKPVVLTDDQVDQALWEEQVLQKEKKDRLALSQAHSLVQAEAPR
UniProt Q6P9B6: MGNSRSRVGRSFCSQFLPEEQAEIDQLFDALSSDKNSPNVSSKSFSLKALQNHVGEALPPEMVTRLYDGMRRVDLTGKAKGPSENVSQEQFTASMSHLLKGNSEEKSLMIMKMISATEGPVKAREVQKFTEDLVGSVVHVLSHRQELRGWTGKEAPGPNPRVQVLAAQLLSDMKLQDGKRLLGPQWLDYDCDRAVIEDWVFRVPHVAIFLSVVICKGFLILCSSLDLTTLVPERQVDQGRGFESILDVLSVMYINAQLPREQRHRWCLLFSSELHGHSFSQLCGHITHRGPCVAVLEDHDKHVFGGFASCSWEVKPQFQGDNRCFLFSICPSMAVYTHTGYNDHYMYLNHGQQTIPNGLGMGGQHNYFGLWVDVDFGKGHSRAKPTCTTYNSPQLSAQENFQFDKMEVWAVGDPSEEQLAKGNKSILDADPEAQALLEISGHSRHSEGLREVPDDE
UniProt Q9NUW8, whole entry, looked up: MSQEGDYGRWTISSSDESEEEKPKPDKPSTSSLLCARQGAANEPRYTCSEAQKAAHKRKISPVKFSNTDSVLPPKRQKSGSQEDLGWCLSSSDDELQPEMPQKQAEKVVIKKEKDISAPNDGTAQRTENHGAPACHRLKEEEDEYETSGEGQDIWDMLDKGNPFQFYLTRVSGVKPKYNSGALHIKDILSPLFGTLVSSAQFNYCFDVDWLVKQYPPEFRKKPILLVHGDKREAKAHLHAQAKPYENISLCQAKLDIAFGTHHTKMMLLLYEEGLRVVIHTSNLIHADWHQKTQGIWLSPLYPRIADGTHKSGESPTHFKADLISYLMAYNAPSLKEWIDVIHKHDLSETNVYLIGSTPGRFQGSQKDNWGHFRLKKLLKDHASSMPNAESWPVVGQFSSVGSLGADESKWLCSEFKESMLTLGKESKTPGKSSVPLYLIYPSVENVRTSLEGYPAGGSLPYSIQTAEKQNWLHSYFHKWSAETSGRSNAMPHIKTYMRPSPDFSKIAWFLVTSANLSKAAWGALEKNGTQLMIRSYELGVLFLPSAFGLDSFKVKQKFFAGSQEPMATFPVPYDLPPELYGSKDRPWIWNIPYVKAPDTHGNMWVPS
UniProt Q9H5Q4: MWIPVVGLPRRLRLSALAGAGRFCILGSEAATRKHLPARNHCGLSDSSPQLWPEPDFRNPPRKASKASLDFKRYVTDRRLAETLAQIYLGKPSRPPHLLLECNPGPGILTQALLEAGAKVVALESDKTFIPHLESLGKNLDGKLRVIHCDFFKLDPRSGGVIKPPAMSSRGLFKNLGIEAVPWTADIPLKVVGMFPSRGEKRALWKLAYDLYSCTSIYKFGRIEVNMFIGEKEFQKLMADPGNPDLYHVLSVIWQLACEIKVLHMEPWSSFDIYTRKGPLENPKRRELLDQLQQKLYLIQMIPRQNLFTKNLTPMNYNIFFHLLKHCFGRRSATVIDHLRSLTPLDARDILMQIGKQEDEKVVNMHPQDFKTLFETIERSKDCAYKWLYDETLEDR
UniProt P52888, whole entry, looked up: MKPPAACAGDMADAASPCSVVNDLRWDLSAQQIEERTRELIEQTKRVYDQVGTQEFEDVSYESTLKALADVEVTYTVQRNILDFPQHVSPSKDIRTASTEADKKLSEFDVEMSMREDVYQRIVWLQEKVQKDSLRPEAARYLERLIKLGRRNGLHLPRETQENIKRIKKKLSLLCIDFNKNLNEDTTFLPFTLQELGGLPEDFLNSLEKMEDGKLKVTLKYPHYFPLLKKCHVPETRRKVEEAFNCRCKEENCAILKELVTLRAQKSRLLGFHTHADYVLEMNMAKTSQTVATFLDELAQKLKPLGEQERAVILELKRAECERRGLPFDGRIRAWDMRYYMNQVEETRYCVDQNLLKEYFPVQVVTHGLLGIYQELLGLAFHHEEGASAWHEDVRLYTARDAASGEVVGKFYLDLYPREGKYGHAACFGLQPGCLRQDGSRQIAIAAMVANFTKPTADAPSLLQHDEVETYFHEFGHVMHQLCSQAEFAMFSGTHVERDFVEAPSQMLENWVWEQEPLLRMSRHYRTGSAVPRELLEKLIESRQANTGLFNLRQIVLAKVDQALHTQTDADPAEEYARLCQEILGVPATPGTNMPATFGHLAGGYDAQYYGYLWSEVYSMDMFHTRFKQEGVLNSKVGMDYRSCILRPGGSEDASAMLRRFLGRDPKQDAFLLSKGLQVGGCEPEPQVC
UniProt Q8WUH2: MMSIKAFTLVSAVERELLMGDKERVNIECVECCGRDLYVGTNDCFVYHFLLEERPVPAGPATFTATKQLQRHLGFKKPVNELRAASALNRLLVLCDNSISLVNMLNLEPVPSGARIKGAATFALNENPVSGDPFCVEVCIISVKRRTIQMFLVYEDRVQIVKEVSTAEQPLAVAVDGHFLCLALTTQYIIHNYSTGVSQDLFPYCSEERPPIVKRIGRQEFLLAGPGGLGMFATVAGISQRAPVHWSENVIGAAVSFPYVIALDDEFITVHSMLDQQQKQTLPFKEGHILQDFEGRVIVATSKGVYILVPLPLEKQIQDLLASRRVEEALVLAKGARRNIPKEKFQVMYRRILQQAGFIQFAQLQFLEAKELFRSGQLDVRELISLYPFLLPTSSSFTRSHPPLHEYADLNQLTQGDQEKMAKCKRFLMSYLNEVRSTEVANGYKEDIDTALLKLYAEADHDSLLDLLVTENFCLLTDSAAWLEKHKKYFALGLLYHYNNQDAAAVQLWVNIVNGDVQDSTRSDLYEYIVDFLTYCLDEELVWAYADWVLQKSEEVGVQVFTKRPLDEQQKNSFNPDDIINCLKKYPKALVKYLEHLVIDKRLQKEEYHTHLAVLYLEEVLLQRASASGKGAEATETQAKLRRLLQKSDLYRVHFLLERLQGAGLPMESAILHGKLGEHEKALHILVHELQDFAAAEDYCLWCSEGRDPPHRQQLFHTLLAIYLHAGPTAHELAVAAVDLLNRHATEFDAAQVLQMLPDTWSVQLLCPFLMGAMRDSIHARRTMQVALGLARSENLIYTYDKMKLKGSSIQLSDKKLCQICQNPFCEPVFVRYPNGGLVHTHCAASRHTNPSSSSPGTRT
UniProt Q9UGI8: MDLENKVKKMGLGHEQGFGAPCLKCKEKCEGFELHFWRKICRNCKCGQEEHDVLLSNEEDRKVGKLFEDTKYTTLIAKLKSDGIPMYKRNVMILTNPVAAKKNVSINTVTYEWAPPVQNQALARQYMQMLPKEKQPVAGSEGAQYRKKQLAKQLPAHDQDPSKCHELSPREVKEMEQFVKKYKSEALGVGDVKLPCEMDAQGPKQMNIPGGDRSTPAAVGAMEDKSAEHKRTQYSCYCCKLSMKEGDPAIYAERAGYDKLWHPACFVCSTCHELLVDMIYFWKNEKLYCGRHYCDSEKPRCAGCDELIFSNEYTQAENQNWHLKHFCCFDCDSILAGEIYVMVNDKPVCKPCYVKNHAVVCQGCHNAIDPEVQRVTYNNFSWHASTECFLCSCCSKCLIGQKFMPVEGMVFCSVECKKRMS
UniProt Q8NHU6: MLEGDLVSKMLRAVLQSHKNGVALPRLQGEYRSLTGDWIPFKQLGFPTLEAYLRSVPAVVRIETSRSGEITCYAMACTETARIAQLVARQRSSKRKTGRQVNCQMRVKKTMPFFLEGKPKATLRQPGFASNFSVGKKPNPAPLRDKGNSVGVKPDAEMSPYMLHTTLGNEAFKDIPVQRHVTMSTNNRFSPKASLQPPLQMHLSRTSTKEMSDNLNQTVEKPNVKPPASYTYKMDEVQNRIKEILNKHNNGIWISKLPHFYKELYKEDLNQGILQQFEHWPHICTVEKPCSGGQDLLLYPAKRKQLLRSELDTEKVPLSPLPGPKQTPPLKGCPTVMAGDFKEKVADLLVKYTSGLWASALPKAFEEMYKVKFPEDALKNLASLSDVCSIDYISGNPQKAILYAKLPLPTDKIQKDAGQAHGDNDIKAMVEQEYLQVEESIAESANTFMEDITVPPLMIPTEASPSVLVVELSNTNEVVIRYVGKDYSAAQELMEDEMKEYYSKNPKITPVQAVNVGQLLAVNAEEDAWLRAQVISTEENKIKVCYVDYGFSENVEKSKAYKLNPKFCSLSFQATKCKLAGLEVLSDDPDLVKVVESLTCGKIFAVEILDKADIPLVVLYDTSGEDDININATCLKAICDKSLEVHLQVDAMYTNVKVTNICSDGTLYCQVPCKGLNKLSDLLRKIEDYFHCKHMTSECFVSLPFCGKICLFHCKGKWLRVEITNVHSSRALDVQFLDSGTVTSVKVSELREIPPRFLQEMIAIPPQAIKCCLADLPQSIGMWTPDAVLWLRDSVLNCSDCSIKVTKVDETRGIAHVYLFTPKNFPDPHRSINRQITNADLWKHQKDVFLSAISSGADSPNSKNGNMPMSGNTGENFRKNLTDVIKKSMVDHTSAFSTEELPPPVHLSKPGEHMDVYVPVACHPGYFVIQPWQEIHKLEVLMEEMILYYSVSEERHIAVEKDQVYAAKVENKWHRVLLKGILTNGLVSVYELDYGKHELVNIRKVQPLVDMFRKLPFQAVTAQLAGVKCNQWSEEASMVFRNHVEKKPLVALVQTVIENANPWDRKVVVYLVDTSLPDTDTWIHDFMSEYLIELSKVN
UniProt Q9Y5J6: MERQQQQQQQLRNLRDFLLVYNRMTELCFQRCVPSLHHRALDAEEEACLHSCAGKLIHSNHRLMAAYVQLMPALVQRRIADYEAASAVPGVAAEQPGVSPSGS

Compound: Cc1cc(ccc1-c1ccccc1)C(=O)N1CCCN(CC1)C(=O)CCl [compound 10]
Assay: probe-labelled cysteine peptide fold change vs DMSO (competition) (log2 fold change); higher = less target engagement (more negative = stronger competition)
Conditions: THP-1, incubation time: 4 h
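Further: competitive profiling in live THP-1 cells: cysteine peptides tagged with an iodoacetamide desthiobiotin (IA-DTB) probe, intensity after compound treatment relative to DMSO-treated cells.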

Target	probe-labelled cysteine peptide fold change (10 µM)	probe-labelled cysteine peptide fold change (50 µM)
TDRD3_Q9H7E2_377_CDRPYSR (UniProt Q9H7E2)	-0.0361	-0.233
TK1_P04183_206_ENCPVPGKPGEAVAAR (UniProt P04183)	-0.0233	-0.211
TIMM29_Q9BSF4_46_DYAEACR (UniProt Q9BSF4)	-0.24	-0.0837
TLDC1_Q6P9B6_310_HVFGGFASCSWEVKPQFQGDNR (UniProt Q6P9B6)	0.191	0.215
TDP1_Q9NUW8_251_PYENISLCQAK (UniProt Q9NUW8)	-0.0231	0.0761
TFB2M_Q9H5Q4_149_VIHCDFFK (UniProt Q9H5Q4)	0.0456	-0.234
TKFC_Q3LXA3_24_KLVNSVAGCADDALAGLVACNPNLQLLQGHR (UniProt Q3LXA3)	-0.0575	-0.141
THOP1_P52888_246_RKVEEAFNCR (UniProt P52888)	-0.0672	-0.292
TGFBRAP1_Q8WUH2_582_NSFNPDDIINCLK (UniProt Q8WUH2)	0.0838	0.168
TES_Q9UGI8_361_NHAVVCQGCHNAIDPEVQR (UniProt Q9UGI8)	-0.0444	-0.27
TLN1_Q9Y490_1661_DKAPGQLECETAIAALNSCLR (UniProt Q9Y490)	-0.0165	-0.397
TDRD7_Q8NHU6_1029_CNQWSEEASMVFR (UniProt Q8NHU6)	-0.175	-0.845
THOP1_P52888_175_LSLLCIDFNK (UniProt P52888)	-0.158	0.105
TIMM10B_Q9Y5J6_52_ALDAEEEACLHSCAGK (UniProt Q9Y5J6)	0.141	-0.228
